From patent US6482949B1, “Colormetric sensor compositions and methods” (priority 1999, dated 2002)
At least one structure is not confirmed: it was looked up by name or label, or the drawing left a doubt. Some entries share one result that the patent states for a list of compounds.

How the values were obtained:
[1] = Anion binding constants (Ka) by fluorescence quenching / UV-vis absorbance titration, fluoride; conditions: dichloromethane; for selectivity ratio for F^− over Cl^−: ratio of Ka
Source text: (§1) The conclusion that 1 binds fluoride anion in dichloromethane solution was further supported by mass spectrometric analyses and titration experiments made using UV-visible absorption and fluorescence emission methods (Tables 1 and 2). The latter studies, which provided Ka values (Tables 1 and 2), were complemented by molar ratio analyses (Job plots) with 1:1 binding stoichiometries observed in all cases.
(§2) Nonetheless, even with these control systems the addition of tetrabutylammonium salts of various anions (F^−, Cl^− and H2PO4^−), gave rise to results that were quite interesting. […] Such effects can be rationalized in terms of the electron withdrawing nature of the two carbonyl groups, which serve to pull the electrons from the pyrrole units and thus act to increase the acidity of the pyrrolic NH protons. As a result, hydrogen bonding interactions with F^− are favored. In the particular case of inorganic phosphate, we speculate that the two carbonyl groups may also be involved in binding, stabilizing the complex via ancillary hydrogen bonding interactions involving the two HOP-phosphate protons.

[2] = Anion binding constants (Ka) by fluorescence quenching / UV-vis absorbance titration, dihydrogen phosphate; conditions: dichloromethane
Source text: as §1, §2

[3] = Anion binding constants (Ka) by fluorescence quenching / UV-vis absorbance titration, chloride; conditions: dichloromethane; 1 by fluorescence quenching, 10 by UV-vis absorbance titration at 341 nm; errors ± 10%, average of 2-4 trials
Source text: as §1, §2

[4] = Colorimetric assay: visual color change in solution on addition of fluoride anion; conditions: in solution (dichloromethane), naked eye
Source text: as §2
Unfortunately, the fluorescence quantum yield of 10 is low.
Using 2,3-dipyrrol-2′yl-5,6dicyanopyrazine (preparation is described in Example 30) as a sensing compound, a vivid yellow-to-red color change in solution observed upon addition of fluoride ion verifies that the quinoxaline backbone is not essential for chemical sensing in this family of compounds. This is consistent with the theory that changes in orbital overlap between the pi systems of conjugated bridging unit and the pyrrole rings account for the sensitivity of the sensing elements to analyte species.
In order to understand more fully the above results, studies were performed to map out the mode of fluoride anion binding. […]

## O=[N+]([O-])c1ccc2nc(-c3ccc[nH]3)c(-c3ccc[nH]3)nc2c1 [compound 7, 6-nitro-2,3-dipyrrylquinoxaline]
[1]
  selectivity ratio for F^− over Cl^−: more than 360

## O=C(C(=O)c1ccc[nH]1)c1ccc[nH]1 [compound 10, 1,2-Dipyrryl ethanedione]
[1]; tetrabutylammonium salt
  change in the absorbance or emission spectra on addition of F^−: remarkable changes were noticed in the emission spectra
[1]; 1 by fluorescence quenching (λex 412 nm), 10 by UV-vis absorbance titration at 341 nm, errors ± 10%, average of 2-4 trials
  Anion binding constant (Ka), F^−: 23,000 M^−1
[2]; tetrabutylammonium salt
  change in the absorbance or emission spectra on addition of H2PO4^−: remarkable changes were noticed in the emission spectra
[2]; 1 by fluorescence quenching, 10 by UV-vis absorbance titration at 341 nm, errors ± 10%, average of 2-4 trials
  Anion binding constant (Ka), H2PO4^−: 170 M⁻¹
[3]
  Anion binding constant (Ka), Cl^−: <50 M⁻¹
[4]
  fluoride anion-induced color change: yellow-green to orange

## O=[N+]([O-])c1cc2nc(-c3ccc[nH]3)c(-c3ccc[nH]3)nc2cc1[N+](=O)[O-] [compound 3, 2,3-dipyrrol-2′-yl-6,7-dinitroquinoxaline]
[1]
  selectivity ratio for F^− over Cl^−: more than 360
